Patent US10000498B2, “Selective proton coupled folate transporter and folate receptor, and GARFTase inhibitor compounds and methods of using the same” (Duquesne University of the Holy Spirit, priority 2008, dated 2018)
Some entries share one result that the patent states for a list of compounds.

Target: T1, hRFC (Homo sapiens, UniProt P41440)
T1 construct: expressed in transfected cells; host or cells: PC43-10 (CHO subline derived from RFC- and FR-null R2 cells)
T1 sequence (P41440 1-591): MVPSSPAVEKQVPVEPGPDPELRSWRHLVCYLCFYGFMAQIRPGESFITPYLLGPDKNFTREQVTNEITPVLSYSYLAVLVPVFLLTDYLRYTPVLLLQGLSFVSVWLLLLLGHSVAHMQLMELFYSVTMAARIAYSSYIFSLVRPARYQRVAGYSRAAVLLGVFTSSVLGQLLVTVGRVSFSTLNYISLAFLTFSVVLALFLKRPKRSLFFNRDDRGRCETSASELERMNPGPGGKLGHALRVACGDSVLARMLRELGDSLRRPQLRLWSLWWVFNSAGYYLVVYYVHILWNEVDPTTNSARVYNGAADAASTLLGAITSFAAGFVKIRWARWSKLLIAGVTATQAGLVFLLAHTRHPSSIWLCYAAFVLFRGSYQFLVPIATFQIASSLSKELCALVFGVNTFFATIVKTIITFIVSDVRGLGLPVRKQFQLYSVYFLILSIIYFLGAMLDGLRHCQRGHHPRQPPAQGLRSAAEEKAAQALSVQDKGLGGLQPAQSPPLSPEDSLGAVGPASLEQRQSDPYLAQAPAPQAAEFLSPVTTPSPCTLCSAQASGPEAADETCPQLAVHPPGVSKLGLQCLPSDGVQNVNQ
Assay: Inhibition of [3H]MTX uptake by RFC in PC43 cells
Assay type: cell-based
Settings: PC43 cells expressing RFC only

Nc1nc2[nH]c(CCCCCc3ccc(C(=O)N[C@@H](CCC(=O)O)C(=O)O)s3)cc2c(=O)[nH]1 [AAG154360, (S)-2-({5-[5-(2-amino-4-oxo-4,7-dihydro-3H-pyrrolo[2,3-d]pyrimidin-6-yl)-pentyl]-thiophene-2-carbonyl}-amino)-pentanedioic acid]
Inhibition of [3H] MTX uptake in PC43 cells: < 20%
